Drawing on PubChem BioAssay AID901 (National Center for Advancing Translational Sciences (NCATS), 2007), this text covers AC50 for 65 compounds.

This is one part of the list. These are further read-outs of the screen, such as a control signal, another cell line or another target. No call is given for them. Compounds called inactive in the main read-out are mostly missing here. Words in brackets tell the shape of the fitted curve; partial curves, single points and poor fits give uncertain potencies.

This test is described as follows: qHTS Assay for Identifying the Cell-Membrane Permeable IMPase Inhibitors. The settings on record: CHO-M1 cells, IP1 accumulation, HTRF TR-FRET ratio; measured here: donor channel 620 nm AC50. On the technique in general: qHTS replaces the single test concentration by a dilution series.
For `COc1ccc(NC(=O)CN2CCC3(O)CCCCC3C2c2ccccc2OC)cc1` (stereo not given), the AC50 (usually the concentration giving half of the maximal activity seen) was 2.51 µM [falling, partial curve].

As to `N/C(Cc1ccc(Cl)cc1)=N\OC(=O)c1cccc2ccccc12`, the AC50 was 0.0158 µM [rising, full curve, poor fit].

`CCn1c2ccc(/C(C)=N\O)cc2c2cc(/C(C)=N\O)ccc21`: the AC50 is 3.98 µM [rising, partial curve].

Consider `O=C(Nc1ccc(O)cc1)c1cccc(S(=O)(=O)N2CCOCC2)c1`, for which the AC50 is 0.112 µM [falling, full curve, poor fit].

Take `CC(=O)Nc1ccc(S(=O)(=O)NC(CC(=O)N(C)Cc2ccccc2)C(C)C)cc1` (stereo not given): the AC50 is 3.98 µM [rising, full curve].

As for `O=C(O)c1ccc(Cl)cc1NC(=O)C1CCCO1` (stereo not given), the concentration at half-maximal activity (AC50) was 0.158 µM [falling, full curve, poor fit].

On to `OCCNc1nc(N2CCCC2)nc(N2CCCC2)n1`, for which the AC50 was 0.891 µM [falling, full curve, poor fit].

Turning to `COc1ccc(-c2nn3c(-c4ccc(C)cc4)nnc3c3ccccc23)cc1`, the concentration at half-maximal activity (AC50) is 0.316 µM [falling, partial curve].

Take `O=C(Nc1ccc(OC(F)(F)F)cc1)c1cnc2n(c1=O)CCS2`: the AC50 is 31.6 µM [rising, single point].

Regarding `O=C(C1CCN(c2ccc(N3CCOCC3)nn2)CC1)N1CCc2ccccc2C1`, the AC50 was 0.0631 µM [rising, partial curve, poor fit].

`c1ccc2[nH]c(NCCN3CCOCC3)nc2c1`: the AC50 is 1 µM [falling, full curve, poor fit].

Regarding `c1ccc(CSc2nnc(-c3cccnc3)o2)cc1`, the AC50 is 1 µM [falling, single point].

As for `COc1ccc2nc3sc(C(=O)Nc4cc(Cl)c(OC)cc4OC)cc3cc2c1`, the AC50 is 35.5 µM [rising, single point].

As for `COC(=O)C(C)N(c1ccc(C)cc1)S(=O)(=O)c1c(C)[nH]c(=O)[nH]c1=O` (stereo not given), the AC50 is 0.0631 µM [falling, full curve, poor fit].

`CCOC(=O)c1c(NC(=O)CNCCOC)sc2c1CCCC2`: the concentration at half-maximal activity (AC50) was 0.00501 µM [falling, full curve, poor fit].

`Nc1cc([N+](=O)[O-])ccc1O`: the AC50 was 22.4 µM [falling, partial curve].

On to `CCOc1ccc(NC(=O)c2ccccc2OC)cc1`, for which the AC50 was 0.501 µM [rising, partial curve, poor fit].

`CC(C)CCn1c(NCCN(C)C)nc2c1c(=O)[nH]c(=O)n2C`: the AC50 is 0.02 µM [rising, full curve, poor fit].

For the compound `CCCn1nc2cc(C(=O)NC3CCc4ccccc43)ccc2c1OCC` (stereo not given), the AC50 is 0.0251 µM [falling, partial curve, poor fit].

`COC(=O)c1nnn(-c2nonc2N)c1CSc1nc2ccccc2s1`: the AC50 is 6.31 µM [rising, single point].

Consider `CCCCOC(=O)CCn1c(=S)oc2ccccc21`, for which the AC50 is 0.0224 µM [falling, full curve].

As to `O=C(Cn1cnc2ccccc21)N/N=C/c1ccco1`, the AC50 is 12.6 µM [falling, partial curve].

`CN1C(=O)CC(c2ccco2)Sc2ccccc21` (stereo not given): the AC50 is 3.16 µM [rising, partial curve, poor fit].

For the compound `Cc1ccc(-c2[nH]c(-c3ccccc3)nc2SCC(=O)NCC2CCCO2)cc1` (stereo not given), the AC50 was 1.78 µM [falling, full curve, poor fit].

As for `COCCOC(=O)C1=C(C)NC2=C(C(=O)CC(c3cccs3)C2)C1c1ccsc1` (stereo not given), the AC50 was 31.6 µM [falling, single point].

For the compound `CN(Cc1ccccc1)C(=O)Nc1ccccc1`, the AC50 was 5.62 µM [rising, single point].

Regarding `COc1ccc(N(CC(=O)N2CCc3ccccc32)S(=O)(=O)c2c(C)n[nH]c2C)cc1`, the AC50 is 0.794 µM [falling, full curve, poor fit].

Consider `Cc1ccc(SCc2[nH]nc3c2C2(C(=O)Nc4ccc([N+](=O)[O-])cc42)C(C#N)=C(N)O3)cc1` (stereo not given), for which the half-maximal activity concentration (AC50) was 0.0794 µM [falling, full curve].

Take `CC(=O)Nc1ccc(C(=O)Cn2nnc3ccccc3c2=O)cc1`: the AC50 was 25.1 µM [falling, single point].

On to `Cc1ccc(Cl)cc1NC1=NC(=S)N(C(C)C)C12CCCCC2`, for which the AC50 is 0.631 µM [falling, partial curve, poor fit].

Regarding `CNC(=O)c1cccn1-c1ccsc1C(=O)OC`, the AC50 was 6.31 µM [rising, full curve, poor fit].

Consider `Cc1ccc(Cl)cc1NC(=O)CC1NCCNC1=O` (stereo not given), for which the AC50 was 3.16 µM [falling, partial curve].

`COc1ccccc1CC(=O)NCc1ccc2c(c1)OCO2`: the AC50 was 3.16 µM [falling, single point].

For the compound `COc1ccc2cc3cc(C(=O)N4CCN(Cc5ccc6c(c5)OCO6)CC4)oc3nc2c1`, the AC50 is 0.00501 µM [falling, full curve, poor fit].

For the compound `COC(=O)c1cc(Cl)c(NS(=O)(=O)c2ccccc2)cc1OC`, the AC50 was 35.5 µM [falling, single point].

For `C=C(C)COc1ccc(-c2nc(N)nc(C)c2Oc2ccccc2OC)c(O)c1`, the AC50 is 3.98 µM [falling, partial curve, poor fit].

Regarding `Cc1cccc(-c2nnc(SCC(=O)NCc3ccc4c(c3)OCO4)n2C)c1`, the AC50 is 2.51 µM [rising, full curve].

Consider `CCc1c(C)nc(N2CCOCC2)[nH]c1=O`, for which the half-maximal activity concentration (AC50) is 1.26 µM [falling, single point].

With `CC(C)Oc1ccc(/C(O)=C2/C(=O)C(=O)N(Cc3cccnc3)C2c2ccco2)cc1` (stereo not given), the AC50 is 0.158 µM [falling, single point].

For `O=C(CSc1nc(-c2ccc(F)cc2)[nH]c1-c1ccccc1)Nc1ccccc1`, the AC50 was 6.31 µM [falling, partial curve, poor fit].

Turning to `COc1ccc(/C=N\NS(=O)(=O)c2ccc(Cl)cc2)cc1COc1ccccc1[N+](=O)[O-]`, the AC50 is 0.251 µM [falling, full curve, poor fit].

Regarding `Cn1cnnc1SCC(=O)Nc1sccc1C#N`, the AC50 is 0.251 µM [falling, full curve].

For `COc1cccc(-c2nn(C)c3sc(C(=O)Nc4ccc5c(c4)OCCO5)cc23)c1`, the AC50 was 4.47 µM [falling, full curve].

With `COc1ccc(-n2c(C)cc(C(=O)Cn3c(NCCO)nc4ccccc43)c2C)cc1`, the AC50 is 0.01 µM [rising, full curve, poor fit].

In the case of `C[C@@H]1O[C@@H](OC[C@H]2O[C@@H](Oc3c(-c4cccc(O)c4O)oc4cc(O)cc(O)c4c3=O)[C@H](O)[C@@H](O)[C@@H]2O)[C@H](O)[C@H](O)[C@H]1O`, the AC50 was 15.8 µM [falling, partial curve, poor fit].

Turning to `COC(=O)CSc1nc(-c2ccccc2)c2c(c1C#N)CCCC2`, the concentration at half-maximal activity (AC50) was 31.6 µM [falling, single point].

For `CCN(CC)C(=O)c1cc(-c2ccc(Br)cc2)on1`, the AC50 is 6.31 µM [falling, full curve, poor fit].

As to `O=C(CN1CCN(C(=O)c2cccc(F)c2)CC1)NC1CCCCC1`, the AC50 was 0.01 µM [falling, full curve, poor fit].

Regarding `COc1ccccc1-n1c(C)nc2cc(C(=O)O)ccc21`, the AC50 was 10 µM [falling, partial curve, poor fit].

As for `COC(=O)c1c(C(C)=O)cnc2ccc(Br)cc12`, the AC50 was 3.16 µM [rising, full curve, poor fit].

For the compound `COc1ccc(OC)c(C2CC(=O)c3c([nH]c(C(=O)OCc4ccc(C)cc4)c3C)C2)c1` (stereo not given), the AC50 is 31.6 µM [rising, single point].

Regarding `Cc1cccc(C(=O)O/N=C2\CCSc3ccc(C)cc32)c1`, the AC50 is 10 µM [falling, partial curve].

On to `Cc1nc2cc(NC(=O)NCc3ccco3)ccc2o1`, for which the AC50 was 2.24 µM [rising, full curve].

Take `CCC(=O)Nc1ccc(-c2cc(-c3ccccc3)nc(-c3ccc(NC(=O)CC)cc3)n2)cc1`: the AC50 is 0.02 µM [falling, full curve].

As to `O=C(NCc1ccco1)c1sc2cc(Cl)ccc2c1Cl`, the AC50 was 0.00501 µM [falling, full curve, poor fit].

With `CSc1nc2c(c(=O)[nH]c(=O)n2C)n1C/C=C(\C)Cl`, the AC50 was 0.0251 µM [falling, full curve, poor fit].

With `CCOc1ccc(C(=O)Nc2ccc(NC(=O)c3ccco3)c(Cl)c2)cc1Br`, the AC50 is 31.6 µM [rising, single point].

On to `Cc1ccc(-n2c(=O)cc(N3CCN(Cc4ccccc4)CC3)[nH]c2=O)cc1`, for which the AC50 was 0.141 µM [falling, full curve].

With `Cc1ccc(O)c(NC(=O)c2cc3nc4c(c(C(F)(F)F)n3n2)CCc2ccccc2-4)c1`, the AC50 is 10 µM [falling, partial curve, poor fit].

`CCOc1ccc(CCNC(=O)c2ccc(N3CCCC3=O)cc2)cc1OCC`: the AC50 is 5.01 µM [rising, single point].

On to `COC(=O)CSc1nnc(CNC(=O)c2ccccc2OC)n1C`, for which the AC50 was 31.6 µM [falling, partial curve].

`Fc1cccc(CSc2ncnc3c2oc2ccccc23)c1`: the AC50 was 20 µM [rising, single point].

For `S=C(c1ccc(-c2ccccc2Cl)o1)N1CCOCC1`, the AC50 was 1 µM [falling, full curve].

In the case of `COC(=O)C(CC(C)C)NC(=O)CSc1nc(-c2ccccc2)c(C#N)c(=O)[nH]1` (stereo not given), the AC50 is 12.6 µM [rising, single point].

On to `Cc1ccc(-n2c(SCC(=O)Nc3ccc4c(c3)OCO4)nnc2-c2ccccn2)cc1`, for which the AC50 is 0.00501 µM [falling, full curve, poor fit].
